Some results were stated once for a whole list of compounds, not compound by compound.
tested on: 60 human tumor cell lines; assay: NCI screening of antitumor activity in vitro in 60 human tumor cell lines; format: cell-based; details: read-out: 50% lethal concentration (LC50)
Excerpt: The experimental results refer to FIGS. 1-12.

Row | SMILES | CC50 [µM]
1 | CC(=O)O[C@H]1C(=O)[C@@]2(C)[C@H]([C@H](OC(=O)c3ccccc3)[C@]3(O)C[C@H](OC(=O)[C@H](OC(=O)CCC(=O)NCCCCC(NC(=O)CC[C@H](NC(=O)C(C)NC(=O)/C=C/c4ccc(Cl)cc4)C(N)=O)C(N)=O)[C@@H](NC(=O)c4ccccc4)c4ccccc4)C(C)=C1C3(C)C)[C@]1(OC(C)=O)CO[C@@H]1C[C@@H]2O (stereo partly drawn) [MTC-220] | > 10
2 | CC(=O)O[C@H]1C(=O)[C@@]2(C)[C@H]([C@H](OC(=O)c3ccccc3)[C@]3(O)C[C@H](OC(=O)[C@H](OC(=O)CCC(=O)NCCCCC(NC(=O)CC[C@H](NC(=O)C(C)NC(=O)c4ccc5ccccc5n4)C(N)=O)C(N)=O)[C@@H](NC(=O)c4ccccc4)c4ccccc4)C(C)=C1C3(C)C)[C@]1(OC(C)=O)CO[C@@H]1C[C@@H]2O (stereo partly drawn) [MTC-213] | > 10
3 | CC(=O)O[C@H]1C(=O)[C@@]2(C)[C@H]([C@H](OC(=O)c3ccccc3)[C@]3(O)C[C@H](OC(=O)[C@H](OC(=O)CCC(=O)NCCCCC(NC(=O)CC[C@H](NC(=O)C(C)NC(=O)/C=C/c4cccs4)C(N)=O)C(N)=O)[C@@H](NC(=O)c4ccccc4)c4ccccc4)C(C)=C1C3(C)C)[C@]1(OC(C)=O)CO[C@@H]1C[C@@H]2O (stereo partly drawn) [MTC-219] | > 10
4 | CC(=O)O[C@H]1C(=O)[C@@]2(C)[C@H]([C@H](OC(=O)c3ccccc3)[C@]3(O)C[C@H](OC(=O)[C@H](OC(=O)CCC(=O)NCCCCC(NC(=O)CC[C@H](NC(=O)C(C)NC(=O)/C=C/c4ccc(C)cc4)C(N)=O)C(N)=O)[C@@H](NC(=O)c4ccccc4)c4ccccc4)C(C)=C1C3(C)C)[C@]1(OC(C)=O)CO[C@@H]1C[C@@H]2O (stereo partly drawn) [MTC-302] | > 10
5 | CC(=O)O[C@H]1C(=O)[C@@]2(C)[C@H]([C@H](OC(=O)c3ccccc3)[C@]3(O)C[C@H](OC(=O)[C@H](OC(=O)CCC(=O)NCCCCC(NC(=O)CC[C@H](NC(=O)C(C)NC(=O)COc4cccc5ccccc45)C(N)=O)C(N)=O)[C@@H](NC(=O)c4ccccc4)c4ccccc4)C(C)=C1C3(C)C)[C@]1(OC(C)=O)CO[C@@H]1C[C@@H]2O (stereo partly drawn) [MTC-233] | > 10
6 | CC(=O)O[C@@]12CO[C@@H]1C[C@H](O)[C@@]1(C)C(=O)[C@H](O)C3=C(C)[C@@H](OC(=O)[C@H](OC(=O)CCC(=O)NCCCCC(NC(=O)CC[C@H](NC(=O)C(C)NC(=O)/C=C/c4ccc(Cl)cc4)C(N)=O)C(N)=O)[C@@H](NC(=O)OC(C)(C)C)c4ccccc4)C[C@@](O)([C@@H](OC(=O)c4ccccc4)[C@H]21)C3(C)C (stereo partly drawn) [MDC-400] | > 10

Source: patent publication US9085605B2, “Chemical synthesis and anti-tumor and anti-metastatic effects of dual functional conjugate” (Shenzhen Salubris Pharmaceuticals Co., Ltd., priority 2010, dated 2015)
